Laboratory results published in the supplement of paper PMC7238544.
Structures can show the parent of a compound that is named as a salt. ± gives the standard deviation of the averaged measurements. Some of the results follow. The data scatter; read single values as rough.

Tested on: hAMSC donor 1
Assay: Hoechst total cell count ratio vs vehicle control; hAMSC are human adipose-derived mesenchymal stem cells given an EGFP-luciferase plasmid by lipofection; higher = more cells (less toxicity)
Settings: priming compound concentration 0.2 µM

| SMILES | Hoechst total cell count ratio |
| --- | --- |
| COC(=O)N1CCN(C(=O)Cc2ccc(Cl)c(Cl)c2)C(CN2CCCC2)C1 (configuration not stated) | 1.55 ± 0.22 |
| c1ccc(Cn2ccnc2)cc1 [Benzylimidazole] | 1.47 ± 0.094 |
| O=C1CN=C(c2ccccc2)c2cc([N+](=O)[O-])ccc2N1 [Nitrazepam] | 1.29 ± 0.21 |
| C[C@]12CC[C@H](O)CC1=CC[C@@H]1[C@@H]2CC[C@]2(C)C(=O)CC[C@@H]12 [Dehydroepiandrosterone] | 1.32 ± 0.23 |
| O=C1CC[C@@]2(O)[C@H]3Cc4ccc(O)c5c4[C@@]2(CCN3CC2CC2)[C@H]1O5 [Naltrexone hydrochloride] | 1.13 ± 0.07 |
| N=C(NCc1ccc(Cl)cc1)SCCCc1c[nH]cn1 [Clobenpropit] | 1.12 ± 0.077 |
| C=C(C)[C@@H]1[C@H]2OC(=O)[C@@H]1[C@]1(O)C[C@H]3O[C@]34C(=O)O[C@H]2[C@]14C.CC(C)(O)[C@@H]1[C@H]2OC(=O)[C@@H]1[C@]1(O)C[C@H]3O[C@]34C(=O)O[C@H]2[C@]14C [Picrotin - Picrotoxinin] | 1.02 ± 0.051 |
| C[C@]12Cc3c[nH]nc3C[C@@H]1CC[C@@H]1[C@@H]2CC[C@@]2(C)[C@H]1CC[C@]2(C)O [Stanozolol] | 1.35 ± 0.14 |
| C[N+]1(C)CCCC(OC(=O)C(O)(c2ccccc2)c2ccccc2)C1 (configuration not stated) [Mepenzolate bromide] | 1.42 ± 0.085 |
| CN[C@@H]1C[C@@H](c2ccc(Cl)c(Cl)c2)c2ccccc21 [Indatraline hydrochloride] | 1.12 ± 0.048 |
| C#CCN(C)[C@H](C)Cc1ccccc1 [Selegiline hydrochloride] | 1.04 ± 0.046 |
| C[C@]12CC[C@H]3[C@@H](CCC4=CC(=O)CC[C@@]43C)[C@@H]1CC[C@@H]2O [Testosterone] | 1.43 ± 0.047 |
